Test: peptide synthesis
Settings: late stage modification step; run 1

Substance	step yield
HPhePheGlyLeuMetNH2 [4n]	79%
HPhePheGlyLeuMetNH2 [5n]	60%

— patent US5098996A (The United States of America as represented by the …, priority 1988, dated 1992)
